US20230183340A1
Results are given in words; binding and its absence hold for the method and conditions named. Some binding calls cover weakened binding; strength is not graded here. Tags and fused reporters may be left off the sequences shown.

Target: T1, mouse TREM2 (mouse) (UniProt Q99NH8)
T1 sequence (looked up): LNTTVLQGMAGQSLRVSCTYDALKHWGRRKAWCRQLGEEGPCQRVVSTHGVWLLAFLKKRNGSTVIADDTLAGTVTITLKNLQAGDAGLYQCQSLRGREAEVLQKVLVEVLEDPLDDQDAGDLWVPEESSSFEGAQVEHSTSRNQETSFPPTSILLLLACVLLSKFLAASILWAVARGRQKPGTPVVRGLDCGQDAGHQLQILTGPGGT
Experiment: flow cytometry on TREM2 transfected reporter cells, anti-mouse IgG-PE secondary

binding: binds
B1: Recombinant Fc mutated (mouse IgG2a, LALAPG) anti-murine TREM2 antibody (clone 178) (antibody, V domains shown)
VH: EVQLQQSGPELRRPGSSVKLSCKASGYSIIDYLMHWVKHRPGHGLEWIGWIDPENGETKYAQKFQRKATLTADTSSSTAYMQLSSLTSEDTATYFCARQQLRYVMDAWGQGGSVTVSS
VL: DVQMTQSPYNLAASPGESVSINCKASKSISKYLAWYQQKPGKTNKLLIYDGSTLQSGIPSRFSGSGSGTDFTLTIRSLEPEDFGLYYCQQHNEYPLTFGSGTKLEIKR
